Laboratory results reported in paper PMC6199744, “Development of Chemical Proteomics for the Folateome and Analysis of the Kinetoplastid Folateome” (ACS Infectious Diseases, 2018).
Read-outs that look alike come from different tables or passages of the source. This continues a long series; more values of the same kind are listed elsewhere.

Test system: T. brucei lysate proteins
Type: binding, Trypanosoma brucei
Conditions: vs vehicle control

For CCCCCCOc1ccc(Cc2cnc(N)nc2N)cc1 [compound 1], the fold change (protein TB11.01.3180 GUANINE NUCLEOTIDE-BINDING PROTEIN BETA SUBUNIT-LIKE PROTEIN) was 0.95, the fold change (protein TB11.01.5860 T-COMPLEX PROTEIN 1, EPSILON SUBUNIT, PUTATIVE) was 0.83 and the fold change (protein TB11.01.5910 DYNEIN IN[…] IC70, PUTATIVE) was 0.98. The fold change (protein TB11.01.8740 PROTEIN PHOSPHATASE 4, PUTATIVE) was 0.87, the fold change (protein TB11.02.1220 […] SUBUNIT 2) was 0.81 and the fold change (protein TB11.02.4360 40S RIBOSOMAL PROTEIN S21, PUTATIVE) was 1.28. For the same compound, the fold change (protein TB427TMP.01.1540 HY[…], CONSERVED) was 0.99, the fold change (protein TB427TMP.01.5000 HY[…], CONSERVED) was 0.93 and the fold change (protein TB427TMP.01.8470 DIHYDROLIPOYL DEHYDROGENASE) was 0.71. The fold change (protein TB427TMP.01.8510 T-COMPLEX PROTEIN 1, ALPHA SUBUNIT, PUTATIVE) was 0.96, the fold change (protein TB427TMP.01.8570 DYNEIN LIGHT IN[…] D1BLIC, PUTATIVE) was 0.97 and the fold change (protein TB427TMP.02.1070 AMINOPEPTIDASE, PUTATIVE) was 1.39. For the same compound, the fold change (protein TB427TMP.02.5620 Tb427tmp.02.5620) was 0.92, the fold change (protein TB427TMP.02.5720 RIBONUCLEOSIDE-DIPHOSPHATE REDUCTASE LARGE CHAIN) was 0.92 and the fold change (protein TB427TMP.03.0150 HY[…], CONSERVED) was 1. The fold change (protein TB427TMP.160.2220 HY[…], CONSERVED) was 0.94, the fold change (protein TB427TMP.160.4240 […] PROTEIN-LIKE PROTEIN) was 0.85 and the fold change (protein TB427TMP.160.4760 HY[…]) was 0.89. For the same compound, the fold change (protein TB427TMP.211.2730 GIM5A PROTEIN) was 0.95, the fold change (protein TB427TMP.211.4170 HY[…], CONSERVED) was 0.88 and the fold change (protein TB427.03.1790 PYRUVATE DEHYDROGENASE E1 BETA SUBUNIT, PUTATIVE) was 0.68. It also gave a fold change (protein TB427.04.1080 V-TYPE ATPASE, A SUBUNIT, PUTATIVE) of 0.87, a fold change (protein TB427.05.4460 MAJOR VAULT PROTEIN, PUTATIVE) of 1.1 and a fold change (protein TB427.06.1070 HY[…], CONSERVED) of 0.93. It also gave a fold change (protein TB427.06.1500 ALKYL-DIHYDR[…] SYNTHASE) of 0.92, a fold change (protein TB427.06.2250 RAC SERINE-THREONINE KINASE, PUTATIVE) of 0.9 and a fold change (protein TB427.06.3050 ALDEHYDE DEH[…], PUTATIVE) of 0.9. It also gave a fold change (protein TB427.06.3500 ENDOSOMAL T[…] RME-8, PUTATIVE) of 0.96, a fold change (protein TB427.06.3630 SPHINGOSINE 1-PHOSPHATE LYASE, PUTATIVE) of 0.96 and a fold change (protein TB427.06.4770 HY[…], CONSERVED) of 0.98. The fold change (protein TB427.07.1770 HY[…], CONSERVED) was 1.41, the fold change (protein TB427.07.2560 HY[…], CONSERVED) was 0.95 and the fold change (protein TB427.07.3370 HY[…], CONSERVED) was 0.9. It also gave a fold change (protein TB427.07.5750 HY[…], CONSERVED) of 1.28, a fold change (protein TB427.08.3530 GLYCEROL-3-PHOSPHATE DEH[…]+], GLYCOSOMAL) of 1 and a fold change (protein TB427.08.3660 PROTEIN TRANSPORT PROTEIN SEC23) of 0.86. The fold change (protein TB427.08.550 PEPTIDE […] REDUCTASE, PUTATIVE) was 0.77, the fold change (protein TB427.10.1170 INTR[…] PROTEIN IFT172, PUTATIVE) was 0.88 and the fold change (protein TB427.10.13660 HY[…], CONSERVED) was 0.91. It also gave a fold change (protein TB427.10.14890 C-TERMINAL MOTOR KINESIN, PUTATIVE) of 0.92, a fold change (protein TB427.10.14950 RNA BINDING PROTEIN, PUTATIVE) of 0.87 and a fold change (protein TB427.10.1510 NOT1) of 0.97. For the same compound, the fold change (protein TB427.10.7740 PROTEIN TRANSPORT PROTEIN SEC23) was 1, the fold change (protein TB427.10.8190 T-COMPLEX PROTEIN 1, THETA SUBUNIT, PUTATIVE) was 0.96 and the fold change (protein TB927.10.12700 PYRUVATE DEHYDROGENASE E1 ALPHA SUBUNIT, PUTATIVE) was 0.79. It also gave a fold change (protein TB927.10.12940 HY[…], CONSERVED) of 1, a fold change (protein TB927.10.2100 […] 1-ALPHA) of 0.89 and a fold change (protein TB927.10.8160 HY[…], CONSERVED) of 0.76. It also gave a fold change (protein TB927.2.2770 HY[…] TB927 2 2770) of 0.91, a fold change (protein TB927.2.4930 ESTERASE, PUTATIVE) of 0.92 and a fold change (protein TB927.3.1370 RIBOSOMAL PROTEIN S25, PUTATIVE) of 1.38. For the same compound, the fold change (protein TB927.3.3270 ATP-DEPENDENT PHOSPHOFRUCTOKINASE) was 0.91, the fold change (protein TB927.4.3820 HY[…], CONSERVED) was 0.96 and the fold change (protein TB927.5.960 HY[…], CONSERVED) was 0.93. For the same compound, the fold change (protein TB927.6.1020 CYSTEINE PEPTIDASE PRECURSOR) was 0.91, the fold change (protein TB927.6.3740 HEAT SHOCK 70 KDA PROTEIN, MIT[…], PUTATIVE) was 0.95 and the fold change (protein TB927.6.560 CYSTEINE PEPTIDASE C (CPC)) was 0.89. It also gave a fold change (protein TB927.7.2140 HY[…]) of 0.87, a fold change (protein TB927.7.2750 PROTEIN KINASE, PUTATIVE) of 0.74 and a fold change (protein TB927.8.4610 SMALL GTP-BINDING PROTEIN RAB1) of 0.83.
